Record: PubChem BioAssay AID1259254 (NCATS, 2017)

- Aim: 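Finding genes that stop cells copying their DNA twice in one cycle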 (primary screen)
- Cells: human HCT116 colorectal cancer cells
- Reagents: single siRNA against human genes
- Timing: 3 days
- Detection: 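Nuclei stained with Hoechst and imaged; cell-cycle phase assigned by DNA content; G2 share scaled per plate, non-targeting siRNA 0%, GMNN siRNA 100%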
- Scale: G2 robust z-score and G2 cells, % of GMNN control: higher = more G2 cells, more excess DNA replication
- Rule for the call: 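An siRNA counts as active if its G2 robust z-score lies at least 5 MADs above the screen median; here such calls match roughly 38% of GMNN control or more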
Shown is an unselected part of about 59,000 deposited reagents. About 1,550 of them (2.6%) count as active. 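G2 share is only a proxy for re-replication; each gene was hit by three separate siRNAs, and active genes were retested.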 The numbers tell different reagents against one gene apart. Not all columns of the deposit are shown. Not given: the amount of reagent.

gene | reagent | G2 robust z-score | G2 cells, % of GMNN control | Call
ETNPPL | 1 | 0.252 | 4.74 | inactive
ETNPPL | 2 | 2.99 | 24 | inactive
ETNPPL | 3 | -1.03 | -4.3 | inactive
FMO4 | 1 | -0.068 | 2.49 | inactive
FMO4 | 2 | -0.048 | 2.63 | inactive
FMO4 | 3 | -0.981 | -3.93 | inactive
C1orf167 | 1 | -0.694 | -1.92 | inactive
C1orf167 | 2 | 1.82 | 15.8 | inactive
C1orf167 | 3 | -1.11 | -4.86 | inactive
SLC6A1 | 1 | 0.698 | 7.88 | inactive
SLC6A1 | 2 | 2.79 | 22.6 | inactive
SLC6A1 | 3 | 0.605 | 7.22 | inactive
SLC13A1 | 1 | -0.571 | -1.05 | inactive
SLC13A1 | 2 | -0.24 | 1.28 | inactive
SLC13A1 | 3 | -1.5 | -7.57 | inactive
NRSN1 | 1 | 0.362 | 5.52 | inactive
NRSN1 | 2 | 1.87 | 16.1 | inactive
NRSN1 | 3 | -0.477 | -0.391 | inactive
DEFA5 | 1 | -1.43 | -7.11 | inactive
DEFA5 | 2 | 0.125 | 3.85 | inactive
DEFA5 | 3 | 0.678 | 7.74 | inactive
SMIM43 | 1 | -0.799 | -2.66 | inactive
SMIM43 | 2 | 2.09 | 17.7 | inactive
SMIM43 | 3 | -0.856 | -3.05 | inactive
ALS2 | 1 | -1.09 | -4.72 | inactive
ALS2 | 2 | -0.462 | -0.283 | inactive
ALS2 | 3 | -0.32 | 0.714 | inactive
GRID1 | 1 | 2.48 | 20.4 | inactive
GRID1 | 2 | -0.0879 | 2.35 | inactive
GRID1 | 3 | 5.45 | 41.3 | active
MAPRE3 | 1 | 0.637 | 7.45 | inactive
MAPRE3 | 2 | -0.647 | -1.58 | inactive
MAPRE3 | 3 | 3.45 | 27.3 | inactive
CHRM1 | 1 | 0.714 | 7.99 | inactive
CHRM1 | 2 | -1.16 | -5.21 | inactive
CHRM1 | 3 | 0.554 | 6.86 | inactive
STARD9 | 1 | 1.71 | 15 | inactive
STARD9 | 2 | -0.413 | 0.0618 | inactive
STARD9 | 3 | -0.586 | -1.16 | inactive
HACL1 | 1 | 1.81 | 15.7 | inactive
HACL1 | 2 | 0.821 | 8.74 | inactive
HACL1 | 3 | 1.01 | 10.1 | inactive
LRTM3 | 1 | 0.903 | 9.32 | inactive
LRTM3 | 2 | -0.0839 | 2.38 | inactive
LRTM3 | 3 | 0.263 | 4.81 | inactive
LRTM3 | 4 | 0.388 | 5.7 | inactive
LRTM3 | 5 | 0.0729 | 3.48 | inactive
LRTM3 | 6 | 1.08 | 10.6 | inactive

Active calls (from the list above):
gene | reagent | G2 robust z-score | G2 cells, % of GMNN control | Call
GRID1 | 3 | 5.45 | 41.3 | active
